Assay results published in PubChem BioAssay AID1645848.

Details: buffer; pH 7.4; 6.0 h; 150.0 µM

SMILES | solubility kinetic [µg/mL]
COc1ccc2[nH]c3c(C)c4ccncc4c(C)c3c2c1 | < 1
CCNC(=O)C[C@@H]1N=C(c2ccc(Cl)cc2)c2cc(OC)ccc2-n2c(C)nnc21 | > 63
